Results on 14 substances are retold here after article PMC9710144.

The chains behind the UniProt entries cited, without tags or fusion partners.
UniProt O14802: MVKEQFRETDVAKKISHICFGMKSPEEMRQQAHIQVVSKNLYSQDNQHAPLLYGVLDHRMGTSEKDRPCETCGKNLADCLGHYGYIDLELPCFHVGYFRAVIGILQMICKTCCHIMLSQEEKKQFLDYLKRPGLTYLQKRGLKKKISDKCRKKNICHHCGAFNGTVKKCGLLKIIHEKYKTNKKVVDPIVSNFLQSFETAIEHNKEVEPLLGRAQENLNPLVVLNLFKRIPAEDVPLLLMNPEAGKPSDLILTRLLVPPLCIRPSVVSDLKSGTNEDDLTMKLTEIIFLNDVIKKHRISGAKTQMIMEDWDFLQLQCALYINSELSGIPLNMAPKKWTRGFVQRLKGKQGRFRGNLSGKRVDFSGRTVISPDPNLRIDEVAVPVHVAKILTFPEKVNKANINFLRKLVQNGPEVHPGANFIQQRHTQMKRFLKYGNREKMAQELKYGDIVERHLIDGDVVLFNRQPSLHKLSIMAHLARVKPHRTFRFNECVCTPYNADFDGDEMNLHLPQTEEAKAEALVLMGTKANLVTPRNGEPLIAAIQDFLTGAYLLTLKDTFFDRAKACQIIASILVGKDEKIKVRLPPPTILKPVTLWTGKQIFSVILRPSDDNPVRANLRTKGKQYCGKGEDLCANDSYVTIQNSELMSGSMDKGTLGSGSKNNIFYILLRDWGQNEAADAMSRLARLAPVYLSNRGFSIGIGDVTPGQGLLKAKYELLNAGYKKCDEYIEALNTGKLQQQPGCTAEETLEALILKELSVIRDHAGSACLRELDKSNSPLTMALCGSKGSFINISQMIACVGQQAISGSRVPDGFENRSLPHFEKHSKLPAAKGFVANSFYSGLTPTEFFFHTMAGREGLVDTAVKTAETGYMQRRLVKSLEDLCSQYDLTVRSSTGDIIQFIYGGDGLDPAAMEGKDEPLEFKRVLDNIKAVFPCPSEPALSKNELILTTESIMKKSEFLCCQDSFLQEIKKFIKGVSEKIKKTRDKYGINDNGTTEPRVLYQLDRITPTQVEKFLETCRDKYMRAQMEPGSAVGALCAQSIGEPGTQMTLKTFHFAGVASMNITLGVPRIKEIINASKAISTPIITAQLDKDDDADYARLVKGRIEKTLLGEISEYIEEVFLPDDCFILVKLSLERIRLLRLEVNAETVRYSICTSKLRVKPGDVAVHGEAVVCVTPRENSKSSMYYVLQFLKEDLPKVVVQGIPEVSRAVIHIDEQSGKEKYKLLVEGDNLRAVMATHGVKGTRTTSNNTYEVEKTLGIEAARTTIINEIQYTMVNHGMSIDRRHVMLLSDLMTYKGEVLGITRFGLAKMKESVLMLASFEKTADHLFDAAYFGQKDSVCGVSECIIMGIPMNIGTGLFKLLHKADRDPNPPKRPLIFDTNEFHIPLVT
UniProt Q9UHW5: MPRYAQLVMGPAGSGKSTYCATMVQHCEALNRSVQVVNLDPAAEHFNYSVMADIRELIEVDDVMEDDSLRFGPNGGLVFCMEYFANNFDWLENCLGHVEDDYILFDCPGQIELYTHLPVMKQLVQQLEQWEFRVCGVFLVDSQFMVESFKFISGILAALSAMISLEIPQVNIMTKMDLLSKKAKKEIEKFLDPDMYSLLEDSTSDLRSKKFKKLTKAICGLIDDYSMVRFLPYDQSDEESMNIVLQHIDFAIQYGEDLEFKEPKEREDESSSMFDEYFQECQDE
UniProt P08238: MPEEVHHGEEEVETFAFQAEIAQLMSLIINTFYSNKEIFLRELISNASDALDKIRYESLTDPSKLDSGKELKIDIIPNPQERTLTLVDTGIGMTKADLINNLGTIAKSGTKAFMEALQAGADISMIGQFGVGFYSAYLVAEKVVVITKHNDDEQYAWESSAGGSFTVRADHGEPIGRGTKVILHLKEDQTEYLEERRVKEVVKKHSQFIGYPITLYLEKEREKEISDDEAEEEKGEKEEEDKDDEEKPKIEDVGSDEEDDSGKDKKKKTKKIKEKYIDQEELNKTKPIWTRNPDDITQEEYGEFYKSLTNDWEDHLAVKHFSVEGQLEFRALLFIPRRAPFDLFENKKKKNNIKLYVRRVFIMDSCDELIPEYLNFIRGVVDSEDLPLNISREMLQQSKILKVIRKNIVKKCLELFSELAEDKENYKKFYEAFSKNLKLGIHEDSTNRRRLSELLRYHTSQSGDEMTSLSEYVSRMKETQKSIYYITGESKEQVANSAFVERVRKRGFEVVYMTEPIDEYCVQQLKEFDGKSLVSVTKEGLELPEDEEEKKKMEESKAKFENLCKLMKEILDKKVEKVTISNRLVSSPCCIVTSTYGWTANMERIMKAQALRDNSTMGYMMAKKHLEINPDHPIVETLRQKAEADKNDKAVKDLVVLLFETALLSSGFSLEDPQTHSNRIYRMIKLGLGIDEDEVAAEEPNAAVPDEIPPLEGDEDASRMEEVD
UniProt P0DMV8: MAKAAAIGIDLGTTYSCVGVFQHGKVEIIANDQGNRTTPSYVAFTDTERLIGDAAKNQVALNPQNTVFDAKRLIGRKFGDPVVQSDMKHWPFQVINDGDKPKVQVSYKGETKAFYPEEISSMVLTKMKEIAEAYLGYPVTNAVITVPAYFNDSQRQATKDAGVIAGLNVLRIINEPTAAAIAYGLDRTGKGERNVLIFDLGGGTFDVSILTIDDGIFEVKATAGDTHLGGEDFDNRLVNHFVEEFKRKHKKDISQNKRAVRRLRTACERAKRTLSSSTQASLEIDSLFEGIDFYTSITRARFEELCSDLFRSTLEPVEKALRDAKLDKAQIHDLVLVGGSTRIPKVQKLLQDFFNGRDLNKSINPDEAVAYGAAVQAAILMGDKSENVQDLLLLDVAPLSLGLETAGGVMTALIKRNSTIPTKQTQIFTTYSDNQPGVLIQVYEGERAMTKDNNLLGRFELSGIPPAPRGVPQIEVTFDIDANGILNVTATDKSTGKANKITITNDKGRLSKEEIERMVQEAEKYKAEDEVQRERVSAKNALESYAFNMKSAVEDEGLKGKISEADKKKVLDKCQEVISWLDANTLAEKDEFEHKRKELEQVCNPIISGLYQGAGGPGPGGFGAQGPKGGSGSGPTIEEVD
UniProt P11142: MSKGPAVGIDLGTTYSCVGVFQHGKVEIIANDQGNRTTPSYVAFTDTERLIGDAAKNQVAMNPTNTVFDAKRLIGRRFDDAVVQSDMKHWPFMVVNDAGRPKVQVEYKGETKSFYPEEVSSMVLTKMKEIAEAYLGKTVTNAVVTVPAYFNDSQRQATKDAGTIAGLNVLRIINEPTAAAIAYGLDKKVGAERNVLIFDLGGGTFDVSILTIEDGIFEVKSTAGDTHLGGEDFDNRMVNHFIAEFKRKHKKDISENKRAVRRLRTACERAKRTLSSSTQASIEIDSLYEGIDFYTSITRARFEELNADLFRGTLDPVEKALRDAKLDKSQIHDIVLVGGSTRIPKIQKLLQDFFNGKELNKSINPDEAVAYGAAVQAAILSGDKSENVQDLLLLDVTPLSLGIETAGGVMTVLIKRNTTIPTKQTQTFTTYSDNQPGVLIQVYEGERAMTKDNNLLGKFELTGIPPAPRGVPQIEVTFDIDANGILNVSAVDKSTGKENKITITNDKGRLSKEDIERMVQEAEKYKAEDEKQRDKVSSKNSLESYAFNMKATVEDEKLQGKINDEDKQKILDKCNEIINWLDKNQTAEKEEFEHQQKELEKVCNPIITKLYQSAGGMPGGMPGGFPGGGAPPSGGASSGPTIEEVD
UniProt O15212: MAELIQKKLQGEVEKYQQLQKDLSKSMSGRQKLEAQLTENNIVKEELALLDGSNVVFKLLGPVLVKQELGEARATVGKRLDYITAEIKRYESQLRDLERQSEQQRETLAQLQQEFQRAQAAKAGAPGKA
UniProt O15160: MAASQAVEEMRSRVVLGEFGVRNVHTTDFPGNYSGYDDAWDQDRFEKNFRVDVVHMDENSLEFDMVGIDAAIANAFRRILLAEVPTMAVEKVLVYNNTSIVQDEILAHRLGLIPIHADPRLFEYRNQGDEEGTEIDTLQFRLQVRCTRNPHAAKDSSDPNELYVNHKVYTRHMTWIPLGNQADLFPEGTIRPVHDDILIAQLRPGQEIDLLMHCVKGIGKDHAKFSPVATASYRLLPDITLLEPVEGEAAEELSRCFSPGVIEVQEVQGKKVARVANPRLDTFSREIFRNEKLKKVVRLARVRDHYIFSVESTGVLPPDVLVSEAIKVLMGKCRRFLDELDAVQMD
UniProt P0DPB6: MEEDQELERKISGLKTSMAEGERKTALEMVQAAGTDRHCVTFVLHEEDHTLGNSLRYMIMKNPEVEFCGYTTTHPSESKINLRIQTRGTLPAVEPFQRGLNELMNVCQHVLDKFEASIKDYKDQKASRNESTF
UniProt P05423: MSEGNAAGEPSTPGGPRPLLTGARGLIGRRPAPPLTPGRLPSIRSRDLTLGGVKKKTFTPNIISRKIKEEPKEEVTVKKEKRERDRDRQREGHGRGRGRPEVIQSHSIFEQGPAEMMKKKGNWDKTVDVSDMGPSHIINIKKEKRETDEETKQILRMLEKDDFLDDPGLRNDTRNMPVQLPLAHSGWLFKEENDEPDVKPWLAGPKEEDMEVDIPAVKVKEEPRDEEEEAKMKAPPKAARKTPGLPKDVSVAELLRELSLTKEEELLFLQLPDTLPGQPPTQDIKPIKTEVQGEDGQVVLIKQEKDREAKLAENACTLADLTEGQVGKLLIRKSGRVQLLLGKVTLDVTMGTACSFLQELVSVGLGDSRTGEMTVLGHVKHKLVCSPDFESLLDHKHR
UniProt Q9NVU0: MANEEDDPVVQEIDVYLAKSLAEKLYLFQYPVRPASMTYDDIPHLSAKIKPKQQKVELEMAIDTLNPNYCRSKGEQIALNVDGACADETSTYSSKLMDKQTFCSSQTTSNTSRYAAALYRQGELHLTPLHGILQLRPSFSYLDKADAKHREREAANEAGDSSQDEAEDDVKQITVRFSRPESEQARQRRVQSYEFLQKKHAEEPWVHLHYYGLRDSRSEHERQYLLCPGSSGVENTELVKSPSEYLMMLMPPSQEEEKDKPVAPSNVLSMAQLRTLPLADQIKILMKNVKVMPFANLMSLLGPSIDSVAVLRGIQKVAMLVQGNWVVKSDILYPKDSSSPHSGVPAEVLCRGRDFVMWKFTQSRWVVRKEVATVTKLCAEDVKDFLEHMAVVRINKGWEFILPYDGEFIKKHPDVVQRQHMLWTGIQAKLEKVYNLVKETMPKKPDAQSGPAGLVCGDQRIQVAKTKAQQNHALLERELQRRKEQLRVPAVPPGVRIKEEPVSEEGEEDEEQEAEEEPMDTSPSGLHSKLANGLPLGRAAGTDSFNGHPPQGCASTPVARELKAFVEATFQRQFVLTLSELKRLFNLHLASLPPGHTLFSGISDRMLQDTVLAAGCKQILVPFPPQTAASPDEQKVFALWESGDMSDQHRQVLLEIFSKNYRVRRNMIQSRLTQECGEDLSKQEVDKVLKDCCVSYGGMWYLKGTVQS
UniProt Q9Y2Y1: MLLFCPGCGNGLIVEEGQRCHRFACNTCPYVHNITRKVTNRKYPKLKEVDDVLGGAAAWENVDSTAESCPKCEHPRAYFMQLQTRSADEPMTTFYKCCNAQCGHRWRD
UniProt Q9Y265: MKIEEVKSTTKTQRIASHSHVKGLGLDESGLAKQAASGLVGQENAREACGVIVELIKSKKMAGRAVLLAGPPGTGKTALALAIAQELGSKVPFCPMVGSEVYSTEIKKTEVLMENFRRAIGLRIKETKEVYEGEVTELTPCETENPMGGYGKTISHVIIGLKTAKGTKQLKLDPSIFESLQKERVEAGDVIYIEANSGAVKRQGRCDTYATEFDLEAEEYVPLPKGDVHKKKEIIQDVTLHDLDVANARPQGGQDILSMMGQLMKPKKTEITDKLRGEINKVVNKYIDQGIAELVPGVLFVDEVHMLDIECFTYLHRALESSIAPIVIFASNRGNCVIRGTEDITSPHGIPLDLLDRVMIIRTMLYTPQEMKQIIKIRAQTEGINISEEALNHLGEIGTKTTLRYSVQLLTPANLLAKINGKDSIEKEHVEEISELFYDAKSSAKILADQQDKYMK

Assay [1] has as its target FLAG-tagged POLR3B WT (human) (UniProt Q9NW08). Kind of assay: affinity purification with mass spectrometry; FLAG-tagged POLR3B WT or R103H transiently transfected in HEK293, harvested at time points (5-24 h) after transfection, or treated with 12.5 µM riluzole or DMSO for 20 h; anti-FLAG (M2) magnetic beads with 1.5 mg cell extract, 3 h, 4 °C, lysis buffer 25 mM HEPES, 50 mM KCl, 0,05% NP-40; LC-MS/MS, LFQ, triplicate.

Assay [2] deals with T1, FLAG-tagged POLR3B R103H (human) (UniProt Q9NW08).
T1 sequence: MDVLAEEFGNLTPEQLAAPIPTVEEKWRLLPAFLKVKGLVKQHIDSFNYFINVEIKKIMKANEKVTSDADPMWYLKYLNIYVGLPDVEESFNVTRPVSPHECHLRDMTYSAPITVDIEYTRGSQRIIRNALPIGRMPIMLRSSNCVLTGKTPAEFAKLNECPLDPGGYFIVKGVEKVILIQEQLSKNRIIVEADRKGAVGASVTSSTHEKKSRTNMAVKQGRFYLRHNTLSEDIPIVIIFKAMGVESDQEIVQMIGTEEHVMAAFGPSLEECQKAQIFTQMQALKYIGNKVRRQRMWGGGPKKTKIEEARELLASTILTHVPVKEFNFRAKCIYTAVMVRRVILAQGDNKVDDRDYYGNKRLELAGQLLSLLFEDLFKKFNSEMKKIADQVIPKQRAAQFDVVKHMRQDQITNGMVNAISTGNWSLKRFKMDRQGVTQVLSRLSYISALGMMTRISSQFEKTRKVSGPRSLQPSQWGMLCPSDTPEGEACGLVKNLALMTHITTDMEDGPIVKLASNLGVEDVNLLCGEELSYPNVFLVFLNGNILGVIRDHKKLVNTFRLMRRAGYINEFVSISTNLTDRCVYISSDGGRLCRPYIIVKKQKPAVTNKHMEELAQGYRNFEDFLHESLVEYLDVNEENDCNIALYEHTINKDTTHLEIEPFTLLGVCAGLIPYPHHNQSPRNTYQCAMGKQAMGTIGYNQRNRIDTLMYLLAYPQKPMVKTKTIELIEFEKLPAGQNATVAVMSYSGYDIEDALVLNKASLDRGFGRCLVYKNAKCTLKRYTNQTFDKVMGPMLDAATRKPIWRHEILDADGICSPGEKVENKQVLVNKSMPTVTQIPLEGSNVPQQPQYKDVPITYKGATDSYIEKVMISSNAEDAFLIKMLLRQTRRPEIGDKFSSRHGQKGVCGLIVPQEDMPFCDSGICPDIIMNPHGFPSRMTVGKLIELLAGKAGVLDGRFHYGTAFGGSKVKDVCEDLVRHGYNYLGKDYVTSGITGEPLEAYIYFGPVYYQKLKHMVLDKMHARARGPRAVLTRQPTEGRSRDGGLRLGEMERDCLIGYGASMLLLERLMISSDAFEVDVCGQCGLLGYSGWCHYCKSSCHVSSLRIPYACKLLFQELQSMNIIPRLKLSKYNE
The assay is described as above.

Assay [3] addresses FLAG-tagged POLR3A WT (human) (UniProt O14802). Kind of assay: affinity purification with mass spectrometry; FLAG-tagged POLR3A WT transiently transfected in HEK293, harvested at time points (0-12 h) after transfection; anti-FLAG (M2) magnetic beads with 1.5 mg cell extract, 3 h, 4 °C, lysis buffer 25 mM HEPES, 50 mM KCl, 0,05% NP-40; LC-MS/MS, LFQ against the FLAG control, triplicate.

These are yes or no findings as the source states them, for the method shown. In cells and extracts the contact can be indirect. These calls come from enrichment with a bait or labelling near it, and not all partners need be listed. For some of these results: Sequences can lack the tags named with a protein.

As to GPN3 (from UniProt Q9UHW5 1-284), in assay [1], the binding result is reported as “binds”.

As for HSP90AA1 (from UniProt P07900 1-732), the binding result in assay [1] and in assay [2] was “binds” in each case.

Turning to HSP90AB1 (from UniProt P08238 1-724), the binding result in assay [1] and in assay [2] was “binds” in each case.

For HSPA1A (from UniProt P0DMV8 1-641), the binding entry in assay [1] and in assay [2] was “binds” each time.

Consider HSPA8 (from UniProt P11142 1-646), for which the binding result in assay [1] and in assay [2] was “binds” throughout.

Consider PFDN6 (from UniProt O15212 1-129), for which the binding result in assay [3] is listed as “binds”.

On to POLR1C (from UniProt O15160 1-346), for which the binding entry in assay [3], in assay [1] and in assay [2] was “binds” in each case.

With POLR1D (from UniProt P0DPB6 1-133), the binding entry in assay [1] and in assay [2] was “binds” each time.

On to POLR3A (from UniProt O14802 1-1390), for which the binding result in assay [1] is on record as “binds”.

With POLR3B (from UniProt Q9NW08 1-1133), in assay [3], the binding entry was “binds”.

For the substance POLR3D (from UniProt P05423 1-398), the binding entry in assay [3] and in assay [1] was “binds” throughout.

On to POLR3E (from UniProt Q9NVU0 1-708), for which the binding result in assay [3], in assay [1] and in assay [2] was “binds” each time.

On to POLR3K (from UniProt Q9Y2Y1 1-108), for which the binding result in assay [1] was “binds”.

On to RUVBL1 (from UniProt Q9Y265 1-456), for which the binding result in assay [1] and in assay [2] was “binds” each time.
